Measurements: paper PMC10764326
No constants are given. Whether binding was seen depends on the method and setting. Binding seen in cells or lysates may run through a third protein. Some results given as binding are weak or reduced against the parent protein; the word gives no strength.

By UniProt entry, the sequences of proteins in these tests, tags left out.
UniProt Q3TKT4: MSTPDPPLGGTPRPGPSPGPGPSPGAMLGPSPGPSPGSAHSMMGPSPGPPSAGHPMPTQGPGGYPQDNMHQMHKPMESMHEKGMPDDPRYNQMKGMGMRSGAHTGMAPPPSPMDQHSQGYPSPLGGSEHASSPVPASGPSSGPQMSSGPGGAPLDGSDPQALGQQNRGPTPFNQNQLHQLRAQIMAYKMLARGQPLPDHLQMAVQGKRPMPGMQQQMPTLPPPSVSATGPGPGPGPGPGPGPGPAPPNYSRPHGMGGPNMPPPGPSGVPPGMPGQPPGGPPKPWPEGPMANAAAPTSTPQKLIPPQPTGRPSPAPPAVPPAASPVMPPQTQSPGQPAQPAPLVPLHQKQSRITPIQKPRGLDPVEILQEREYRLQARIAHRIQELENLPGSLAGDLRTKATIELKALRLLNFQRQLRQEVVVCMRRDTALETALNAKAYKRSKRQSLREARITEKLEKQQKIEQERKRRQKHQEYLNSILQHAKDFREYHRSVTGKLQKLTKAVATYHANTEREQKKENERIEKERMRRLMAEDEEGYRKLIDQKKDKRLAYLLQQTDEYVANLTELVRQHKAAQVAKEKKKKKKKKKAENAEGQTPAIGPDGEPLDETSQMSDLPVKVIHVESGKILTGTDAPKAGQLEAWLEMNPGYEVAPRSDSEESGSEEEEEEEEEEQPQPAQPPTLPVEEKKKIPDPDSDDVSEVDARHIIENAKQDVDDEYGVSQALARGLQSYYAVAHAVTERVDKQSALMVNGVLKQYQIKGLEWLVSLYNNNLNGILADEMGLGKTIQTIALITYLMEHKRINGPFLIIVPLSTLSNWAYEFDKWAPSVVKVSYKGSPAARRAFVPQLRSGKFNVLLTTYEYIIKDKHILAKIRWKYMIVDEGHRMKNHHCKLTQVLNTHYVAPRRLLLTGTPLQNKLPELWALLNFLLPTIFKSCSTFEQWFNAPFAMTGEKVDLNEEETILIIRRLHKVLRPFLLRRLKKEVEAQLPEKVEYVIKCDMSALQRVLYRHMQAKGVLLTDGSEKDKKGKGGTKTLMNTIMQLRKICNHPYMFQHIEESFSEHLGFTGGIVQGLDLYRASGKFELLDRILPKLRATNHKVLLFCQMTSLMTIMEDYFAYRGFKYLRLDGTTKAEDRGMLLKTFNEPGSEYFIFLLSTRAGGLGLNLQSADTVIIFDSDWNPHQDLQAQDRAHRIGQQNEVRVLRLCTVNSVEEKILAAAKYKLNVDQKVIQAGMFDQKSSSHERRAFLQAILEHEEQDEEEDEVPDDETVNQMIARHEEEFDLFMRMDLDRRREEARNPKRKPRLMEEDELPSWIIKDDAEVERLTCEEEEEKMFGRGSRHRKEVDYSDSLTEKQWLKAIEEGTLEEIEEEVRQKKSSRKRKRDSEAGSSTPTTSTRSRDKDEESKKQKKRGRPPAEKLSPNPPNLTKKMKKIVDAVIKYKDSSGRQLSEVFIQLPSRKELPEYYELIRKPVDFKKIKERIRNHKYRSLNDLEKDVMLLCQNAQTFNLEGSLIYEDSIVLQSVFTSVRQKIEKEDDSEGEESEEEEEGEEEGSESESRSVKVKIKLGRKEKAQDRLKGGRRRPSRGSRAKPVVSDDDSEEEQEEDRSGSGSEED
UniProt P35710: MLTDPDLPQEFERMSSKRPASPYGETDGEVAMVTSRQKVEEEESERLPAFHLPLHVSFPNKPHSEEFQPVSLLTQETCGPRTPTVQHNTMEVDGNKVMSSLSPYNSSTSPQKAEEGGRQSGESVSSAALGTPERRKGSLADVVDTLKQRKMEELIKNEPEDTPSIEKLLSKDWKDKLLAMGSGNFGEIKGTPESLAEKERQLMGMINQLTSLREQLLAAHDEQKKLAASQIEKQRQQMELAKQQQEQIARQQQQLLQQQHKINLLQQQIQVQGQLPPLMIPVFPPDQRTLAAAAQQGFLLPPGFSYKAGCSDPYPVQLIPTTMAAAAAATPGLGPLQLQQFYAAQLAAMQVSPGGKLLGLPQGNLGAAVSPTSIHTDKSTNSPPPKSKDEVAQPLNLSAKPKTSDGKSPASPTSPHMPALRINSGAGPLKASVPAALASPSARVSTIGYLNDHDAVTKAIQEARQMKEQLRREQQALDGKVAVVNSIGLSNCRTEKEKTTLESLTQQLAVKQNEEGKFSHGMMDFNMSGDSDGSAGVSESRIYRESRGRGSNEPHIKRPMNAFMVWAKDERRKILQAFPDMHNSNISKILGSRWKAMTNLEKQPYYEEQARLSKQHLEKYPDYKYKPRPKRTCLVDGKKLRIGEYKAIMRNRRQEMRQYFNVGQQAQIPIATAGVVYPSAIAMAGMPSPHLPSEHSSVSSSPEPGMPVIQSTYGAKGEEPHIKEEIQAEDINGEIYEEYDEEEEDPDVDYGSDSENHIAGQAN
UniProt P42227: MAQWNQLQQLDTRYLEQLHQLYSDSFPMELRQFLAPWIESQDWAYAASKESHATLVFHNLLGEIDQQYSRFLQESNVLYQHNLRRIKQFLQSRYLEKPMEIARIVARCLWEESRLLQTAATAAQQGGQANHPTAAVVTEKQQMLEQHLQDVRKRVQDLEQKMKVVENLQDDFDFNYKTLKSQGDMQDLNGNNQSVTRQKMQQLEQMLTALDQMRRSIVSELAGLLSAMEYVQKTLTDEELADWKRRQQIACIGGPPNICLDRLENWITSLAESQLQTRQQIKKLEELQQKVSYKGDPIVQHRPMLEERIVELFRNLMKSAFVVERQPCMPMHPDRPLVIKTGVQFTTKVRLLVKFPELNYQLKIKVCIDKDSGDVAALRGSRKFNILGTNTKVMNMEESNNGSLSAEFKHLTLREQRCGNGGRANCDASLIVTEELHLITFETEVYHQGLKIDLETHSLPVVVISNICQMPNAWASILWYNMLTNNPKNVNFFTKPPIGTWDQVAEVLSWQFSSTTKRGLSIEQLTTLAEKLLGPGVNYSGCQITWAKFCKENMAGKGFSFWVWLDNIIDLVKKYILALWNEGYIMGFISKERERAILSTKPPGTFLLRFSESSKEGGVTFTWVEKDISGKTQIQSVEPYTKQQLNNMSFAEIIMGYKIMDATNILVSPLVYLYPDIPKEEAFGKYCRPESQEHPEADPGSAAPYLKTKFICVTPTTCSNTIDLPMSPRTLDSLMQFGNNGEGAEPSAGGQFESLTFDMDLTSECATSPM

Key:
[1] = molecular target: Myc-tagged BRG1 (brahma-related gene 1; SMARCA4) (UniProt Q3TKT4); experiment: co-IP; transfected HeLa cells (Myc-BRG1, Flag-SOX-5, HA-STAT3); IP and IB with the indicated tag antibodies (anti-Myc, anti-HA, anti-Flag)
[2] = molecular target: BRG1 (brahma-related gene 1; SMARCA4) in Th17 cells (mouse (endogenous in Th17 cells)) (UniProt Q3TKT4); experiment: co-IP; whole-cell lysates from Th17 cells; IP with anti-BRG1 antibody or control mouse IgG, IB with anti-STAT3 or anti-SOX-5

binding [1]	binding [2]	Substance
binds	–	Flag-tagged SOX-5 (SRY-box transcription factor 5) (from UniProt P35710 1-763)
binds	–	HA-tagged STAT3 (signal transducer and activator of transcription 3) (from UniProt P42227 1-770)
–	binds	SOX-5 (SRY-box transcription factor 5) in Th17 cells (from UniProt P35710 1-763)
–	binds	STAT3 (signal transducer and activator of transcription 3) in Th17 cells (from UniProt P42227 1-770)
